In all, about 330,000 compounds went through this assay and about 7,700 (2.3%) were called active. This list was built around the results that the source calls inconclusive (neither active nor inactive); the mix of calls is not that of the screen. The call rests on the fitted dose curve; in most records, active means well fitted inhibition curve with a large enough effect; inconclusive means small, poorly fitted or top-dose-only effect, or effect the other way; inactive means flat fitted curve, though single readings scatter. Where the call is inconclusive, the potency comes from a doubtful curve fit.
test: qHTS screen for small molecules that inhibit ELG1-dependent DNA repair in human embryonic kidney (HEK293T) cells expressing luciferase-tagged ELG1; conditions: HEK293T ELG1-luciferase reporter, luminescence, 16 h, DNA damage induced by 5-fluorouridine; activity change, negative = inhibition: at 46.1 µM (top of the series); further: nearly all actives have a fitted effect of over 55% in size
Procedure, shortened: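 Reporter activity after DNA damage by 5-fluorouridine is monitored. Compound-treated cells incubate 16 hr at 37 °C, then ONE-Glo is added for 30 min before luminescence reading.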
On the % scale 0 is the no-effect control and ±100 the full control effect; potency means the concentration at half of the fitted maximal effect.

| SMILES | Potency | activity change, negative = inhibition |
| --- | --- | --- |
| Cc1ccc2cc3cc(C(=O)N4CC(C)CC(C)C4)oc3nc2c1 (configuration not stated) | inconclusive: 20.6 µM [activator, partial curve] | – |
| COc1ccc(CCNC(=O)c2cc(-c3cc(C)cc(C)c3O)n[nH]2)cc1OC | inconclusive: 16.4 µM [inhibitor, single point] | – |
| Cc1c(C)c2ccc(OCC(=O)N3CCC(C(=O)O)CC3)c(C)c2oc1=O | inconclusive: 0.231 µM [activator, full curve, poor fit] | – |
| O=C1CCc2cc(S(=O)(=O)NCCC(=O)NC3CCCCC3)ccc2N1 | – | inactive: 15.2% |
| CC1CCN(C(=O)CSc2nnc(CNC(=O)COc3ccc(Cl)cc3)o2)CC1 | – | inactive: -9.3% |
| O=C(COc1ccc(Cl)cc1Br)NC(=O)NCc1ccccc1 | inconclusive: 20.6 µM [activator, partial curve, poor fit] | – |
| CCOC(=O)c1ccc(N2C(=O)c3n[nH]c(C)c3C2c2ccccc2)cc1 (configuration not stated) | inconclusive: 23.1 µM [inhibitor, partial curve] | – |
| Cc1ccc2c(c1)C(N1CCCC1=O)CC(c1ccco1)N2 (configuration not stated) | inconclusive: 2.31 µM [activator, full curve] | – |
| CCOC(=O)c1c(C)[nH]c(C)c1C(=O)COC(=O)c1cccc(S(=O)(=O)N(CC)CC)c1 | – | inactive: -27.1% |
| COc1ccc(C)cc1NC(=O)C1COc2ccccc2O1 (configuration not stated) | inconclusive: 29.1 µM [activator, single point] | – |
| Nc1c(Cl)cc(Cl)cc1C(=O)OCC(=O)NC1CC1 | inconclusive: 23.1 µM [activator, single point] | – |
| COc1ccc(CCNC(=O)c2cc3c(=O)n4ccccc4nc3n(CC3CCCO3)c2=N)cc1OC (configuration not stated) | inconclusive: 25.9 µM [inhibitor, single point] | – |
| CCOc1ccccc1CN1CCCC(C(=O)c2ccc(OC)c(OC)c2)C1 (configuration not stated) | – | inactive: -18.7% |
| COc1ccc(NC(=O)Cn2c(=O)oc3cc(Cl)ccc32)c(OC)c1 | – | inactive: 0.237% |
| C=C(C)C1CC=C(C)/C(=N/NC(=O)c2cccs2)C1 (configuration not stated) | inconclusive: 14.6 µM [activator, partial curve] | – |
| CC(C)(C)C(=O)CN1C(=O)NC2(CCOc3ccccc32)C1=O (configuration not stated) | – | inactive: 2.68% |
| CC(C)C[C@@H](C(=O)NC1CCN(Cc2ccccc2)CC1)N1C(=O)N2CCc3c([nH]c4ccccc34)[C@@]2(C)C1=O | inconclusive: 0.326 µM [activator, partial curve, poor fit] | – |
| COc1ccc2c(c1)[nH]c1c(=O)n(CCCN3CCOCC3)cnc12 | inconclusive: 18.4 µM [activator, partial curve, poor fit] | – |
| c1cnc2c(SCc3ccc(-c4nnco4)cc3)cccc2c1 | inconclusive: 18.4 µM [activator, partial curve, poor fit] | – |
| O=C(N/N=C/c1cccc([N+](=O)[O-])c1)c1ccc2c(c1)OCCO2 | inconclusive: 10.3 µM [activator, partial curve] | – |
| Cc1ccc(CSCC(=O)NCCc2ccccc2)cc1 | inconclusive: 11.6 µM [activator, partial curve, poor fit] | – |
| COc1ccc(NC(=O)c2ccco2)cc1NC(=O)c1ccc(C)cc1 | inconclusive: 29.1 µM [inhibitor, single point] | – |
| CCn1c(NCc2ccccc2Cl)nc2ccccc21 | inconclusive: 14.6 µM [activator, partial curve] | – |

| SMILES | Potency | activity change, negative = inhibition |
| --- | --- | --- |
| COCCn1c(SCC(=O)c2ccc3c(c2)OCCO3)nnc1-c1ccco1 | – | inactive: 3.93% |
| CCN(CC)CCN(Cc1cc2cc3c(cc2[nH]c1=O)OCCO3)C(=S)NCC(C)C | inconclusive: 9.2 µM [inhibitor, partial curve, poor fit] | – |
| COc1ccc(C2CC(c3ccccc3)=NN2C(=O)c2cccs2)cc1 (configuration not stated) | inconclusive: 20.6 µM [activator, partial curve] | – |
| Cc1ccc(S(=O)(=O)N2CCC(C(=O)Nc3ccccc3N3CCCCC3)CC2)cc1C | – | inactive: -1.62% |
| COC(=O)c1cc(NC(=O)c2ccc(-c3ccccc3)cc2)ccc1Cl | – | inactive: -7.55% |
| COc1cccc(C(=O)Nc2nnc(-c3ccc(F)cc3)o2)c1 | – | inactive: -23.9% |
| CCOC(=O)N1CCN(c2nc(-c3ccc(OC)cc3)no2)CC1 | inconclusive: 29.1 µM [inhibitor, single point] | – |
| O=C(Cc1ccccc1)N/N=C/C=C/c1ccccc1[N+](=O)[O-] | inconclusive: 7.3 µM [activator, partial curve] | – |
| Cc1ccc(-c2cnc3c(Cl)c(C)nn3c2)cc1 | inconclusive: 1.83 µM [activator, partial curve] | – |
| Cc1cc(NS(=O)(=O)c2ccc(NC(=O)Nc3ccc4c(c3)OCO4)cc2)no1 | inconclusive: 29.1 µM [activator, single point] | – |
| CCn1c(NN)nc2sc3c(c2c1=O)CCC3 | – | inactive: -0.0333% |
| COc1cccc(C2CC(C(F)(F)F)n3nc(C(=O)NCc4cccnc4)cc3N2)c1 (configuration not stated) | inconclusive: 14.6 µM [inhibitor, partial curve, poor fit] | – |
| COc1ccc(Nc2nc3ccccc3n2C)cc1 | inconclusive: 20.6 µM [activator, partial curve] | – |
| O=C(Cc1cccs1)NCCc1csc(-c2ccccc2)n1 | – | inactive: 0% |
| O=C(Nc1cc2c3c(c1)C1CCCC1CN3CC1CCCC21)c1ccc([N+](=O)[O-])cc1 (configuration not stated) | inconclusive: 8.2 µM [inhibitor, partial curve] | – |
| CNS(=O)(=O)c1cccc(C(=O)OCCCC(=O)c2ccccc2)c1 | inconclusive: 20.6 µM [inhibitor, single point] | – |
| O=C(CN(Cc1ccccc1)C(=O)c1cc2c(s1)CCC2)NCc1cccs1 | inconclusive: 17.8 µM [inhibitor, single point] | – |
| C=CCn1c2ccccc2c2nnc(SC(CC)C(=O)Nc3sc4c(c3C#N)CCCC4)nc21 (configuration not stated) | inconclusive: 6.51 µM [inhibitor, partial curve] | – |
| C#CCn1c(CCNC(=O)c2ccco2)nc2ccccc21 | inconclusive: 10.3 µM [activator, partial curve] | – |
| COc1ccccc1C1=NN(C2=NN=C(N)Cc3ncnn32)C(O)(C(F)(F)F)C1 (configuration not stated) | – | inactive: -9.73% |
| O=C(c1cccc(-n2cccc2)c1)N1CCN(S(=O)(=O)c2ccccc2Br)CC1 | inconclusive: 23.1 µM [inhibitor, partial curve] | – |
| Cc1ccc(C(=O)Nc2ccc(N3CCN(C)CC3)cc2)cc1 | inconclusive: 16.4 µM [activator, partial curve] | – |
| O=C(Nc1ccc(N2CCCC2)cc1)c1cccc(Cl)c1 | inconclusive: 1.64 µM [activator, full curve] | – |

Two of the compounds above, with tabs:
SMILES	Potency	activity change, negative = inhibition
Cc1ccc(CSCC(=O)NCCc2ccccc2)cc1	inconclusive: 11.6 µM [activator, partial curve, poor fit]	–
COc1ccc(NC(=O)c2ccco2)cc1NC(=O)c1ccc(C)cc1	inconclusive: 29.1 µM [inhibitor, single point]	–

Remaining list, next part:

| SMILES | Potency | activity change, negative = inhibition |
| --- | --- | --- |
| COc1ccc(CCNc2ccc(C(CC(N)=O)NC(=O)c3cc(C)cc(C)c3)cc2[N+](=O)[O-])cc1 (configuration not stated) | inconclusive: 0.0092 µM [inhibitor, full curve, poor fit] | – |
| COc1ccc(C(=O)/C=C/c2ccc(OCc3ccccc3)cc2)cc1CSCC(=O)O | – | inactive: 11% |
| CN(C(=O)c1ccco1)c1nc2c(s1)CCCC2 | inconclusive: 2.31 µM [activator, full curve] | – |
| CCOC(=O)COc1cc([N+](=O)[O-])cc2cccnc12 | inconclusive: 5.8 µM [activator, full curve, poor fit] | – |
| Cn1ccnc1C(=O)c1ccc(Cl)c(S(=O)(=O)N2CCOCC2)c1 | – | inactive: 4.48% |
| O=C(COc1ccccc1Cl)N1CCN(c2ccc([N+](=O)[O-])c(N3CCCCC3)c2)CC1 | inconclusive: 23.1 µM [inhibitor, single point] | – |
| O=c1c2nnn(Cc3ccc(Cl)cc3)c2ncn1Cc1ccc(F)cc1 | inconclusive: 29.1 µM [inhibitor, single point] | – |
| Cc1oc(-c2ccc(Cl)cc2)cc1C(=O)O | inconclusive: 2.91 µM [activator, full curve] | – |
| Cc1ccccc1C(=O)NC1CCN(CC(=O)NC2CCCCC2)CC1 | – | inactive: 3.28% |
| COc1ccc(OC)c(C2=NS(=O)(=O)N(C)C(C(=O)Nc3ccc(C(C)=O)cc3)=C2)c1 | inconclusive: 18.3 µM [inhibitor, partial curve, poor fit] | – |
| CCc1c(C)nc(SCC(=O)NC2CCCC2)[nH]c1=O | inconclusive: 23.1 µM [activator, single point] | – |
| Clc1ccc(-c2csc(-c3ccno3)n2)cc1 | inconclusive: 20.6 µM [activator, single point] | – |
| CN(C(=O)Nc1ccccc1)C1CCCc2ccccc21 (configuration not stated) | inconclusive: 14.6 µM [activator, single point] | – |
| O=C(NNS(=O)(=O)c1ccc([N+](=O)[O-])cc1)c1ccc([N+](=O)[O-])cc1 | – | inactive: -8.84% |
| CCN(CC)S(=O)(=O)c1ccc(Cl)c(C(=O)Nc2cccnc2)c1 | inconclusive: 31.6 µM [inhibitor, single point] | – |
| Cc1cccc(CN2C(=O)CSc3ccc(C(=O)NC4CC4)cc32)c1 | – | inactive: 1.31% |
| COc1ccccc1-c1cc(-c2ccc(O)cc2)nc(N)c1C#N | inconclusive: 32.6 µM [activator, single point] | – |
| C/C(=N\NC(=O)c1ccc(CSc2nc(C)cc(C)n2)cc1)c1ccco1 | inconclusive: 29.1 µM [inhibitor, single point] | – |
| CC(C)n1ncc2c(C(=O)N3CCN(c4ccccc4)CC3)cc(-c3ccccc3)nc21 | inconclusive: 16.4 µM [inhibitor, partial curve, poor fit] | – |
| COc1cc(/C=N/O)ccc1OCc1ccc(C(=O)O)cc1 | inconclusive: 0.082 µM [activator, full curve, poor fit] | – |
| CCOc1ccc(C(=O)N2CCc3cc(OC)c(OC)cc3C2)cc1OCC | inconclusive: 29.1 µM [inhibitor, single point] | – |

Single records, as listed above:
COc1ccc(C2CC(c3ccccc3)=NN2C(=O)c2cccs2)cc1 (configuration not stated) as listed: Potency: inconclusive: 20.6 µM [activator, partial curve]
COc1ccc(CCNC(=O)c2cc3c(=O)n4ccccc4nc3n(CC3CCCO3)c2=N)cc1OC (configuration not stated) as listed: Potency: inconclusive: 25.9 µM [inhibitor, single point]
O=C(Cc1ccccc1)N/N=C/C=C/c1ccccc1[N+](=O)[O-] as listed: Potency: inconclusive: 7.3 µM [activator, partial curve]

Source: PubChem BioAssay AID504467 (National Center for Advancing Translational Sciences (NCATS), 2011)
